According to the supplement of paper PMC6078165:
The reference is the same well before dosing, and untreated signal decays as well.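 Labels refer to human fibroblasts, largely primary: uterine (C12385, HUF), lung (H6013), bone (Hs27A), adrenal (HADF), skin (WS1), plus mammary HMF and breast cancer-associated Hs343T. Cancer lines are basal-like or mesenchymal-like triple-negative breast cancer. The paper counts as hits responses shifting over 3x the replicate standard deviation. The tissue of the other fibroblasts is not given here.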

Test system: Hs578T
Assay: relative JC-1 red fluorescence (viability) vs pre-drug, coculture with fibroblast (fraction); higher = more viable cancer cells
Details: 0.1 µM
Protocol: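 JC-1 labelled TNBC cells cocultured 1:1 (1,500 cells each) with CellTrace Violet stained primary or stromal fibroblasts in 384-well plates in FluoroBrite medium, treated with one of 42 anticancer drugs at 0.1, 1, 10 or 100 uM. JC-1 red fluorescence (mitochondrial integrity in cancer cells only) was read by plate reader every 8 h for 72 h. Values are normalised to each well's pre-drug value. The stock of one drug was tenfold lower, so its dose labels may be too high.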

COc1cc([C@@H]2c3cc4c(cc3[C@@H](O[C@@H]3O[C@@H]5CO[C@@H](C)O[C@H]5[C@H](O)[C@H]3O)[C@H]3COC(=O)[C@H]23)OCO4)cc(OC)c1O [Etoposide]
relative JC-1 red fluorescence
Details | 40 h | 48 h | 56 h | 64 h | 72 h
coculture fibroblast: C12385 | – | 0.521 | 0.5049 | 0.50661 | 0.5174
coculture fibroblast: H6013 | – | 0.72 | 0.703 | 0.706 | 0.682
coculture fibroblast: H6019 | – | 0.515 | 0.485 | 0.47 | 0.449
coculture fibroblast: H6076 | – | 0.787 | 0.771 | 0.781 | 0.783
coculture fibroblast: H6231 | – | 0.592 | 0.549 | 0.538 | 0.527
coculture fibroblast: HADF | – | 0.594 | 0.558 | 0.552 | 0.529
coculture fibroblast: HCFa | – | 0.4946 | 0.454 | 0.438 | 0.405
coculture fibroblast: HCPF | 0.6649 | 0.643 | 0.624 | 0.59 | 0.578
coculture fibroblast: HHSteC | 0.625 | 0.582 | 0.555 | 0.5312 | 0.4948
coculture fibroblast: HMF | 0.67 | 0.633 | 0.5952 | 0.572 | 0.554
coculture fibroblast: HPFa | 0.63 | 0.601 | 0.565 | 0.547 | 0.515
coculture fibroblast: HUF | 0.569 | 0.543 | 0.516 | 0.514 | 0.516
coculture fibroblast: Hs27A | 0.641 | 0.628 | 0.599 | 0.588 | 0.551
coculture fibroblast: Hs343T | 0.627 | 0.596 | 0.547 | 0.528 | 0.528
coculture fibroblast: WS1 | 0.477 | 0.459 | 0.435 | 0.436 | 0.44

Details | relative JC-1 red fluorescence
48 h | 0.504
56 h | 0.467
64 h | 0.42
72 h | 0.403
